Reference: article PMC12697806
No constants are given. Whether binding was seen depends on the method and setting. In cells and extracts the contact can be indirect. Some results given as binding are weak or reduced against the parent protein; the word gives no strength. For some assays here: Sequences can lack the tags named with a protein. Values belong to the molecule of their own block, whether it stands above or below them.

Amino acid sequences for entries named in this document (tags omitted).
UniProt Q15365: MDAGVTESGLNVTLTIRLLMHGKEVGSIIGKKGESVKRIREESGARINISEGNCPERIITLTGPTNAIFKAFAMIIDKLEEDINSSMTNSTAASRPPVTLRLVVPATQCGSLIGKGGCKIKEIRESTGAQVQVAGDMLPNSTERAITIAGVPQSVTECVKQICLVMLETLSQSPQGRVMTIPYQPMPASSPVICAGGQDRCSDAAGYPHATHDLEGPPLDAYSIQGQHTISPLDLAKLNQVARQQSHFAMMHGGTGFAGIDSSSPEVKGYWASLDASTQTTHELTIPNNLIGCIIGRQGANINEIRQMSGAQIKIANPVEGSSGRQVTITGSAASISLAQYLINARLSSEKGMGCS

Tests used:
[1] = biological target: T1, Flag‐OGT (UniProt O15294); experiment: co-IP; HEK293T cells co-transfected with V5-PCBP1, Flag-OGT and/or circPRELID2 for 48 h; IP and immunoblot (Figure 7g)
T1 sequence: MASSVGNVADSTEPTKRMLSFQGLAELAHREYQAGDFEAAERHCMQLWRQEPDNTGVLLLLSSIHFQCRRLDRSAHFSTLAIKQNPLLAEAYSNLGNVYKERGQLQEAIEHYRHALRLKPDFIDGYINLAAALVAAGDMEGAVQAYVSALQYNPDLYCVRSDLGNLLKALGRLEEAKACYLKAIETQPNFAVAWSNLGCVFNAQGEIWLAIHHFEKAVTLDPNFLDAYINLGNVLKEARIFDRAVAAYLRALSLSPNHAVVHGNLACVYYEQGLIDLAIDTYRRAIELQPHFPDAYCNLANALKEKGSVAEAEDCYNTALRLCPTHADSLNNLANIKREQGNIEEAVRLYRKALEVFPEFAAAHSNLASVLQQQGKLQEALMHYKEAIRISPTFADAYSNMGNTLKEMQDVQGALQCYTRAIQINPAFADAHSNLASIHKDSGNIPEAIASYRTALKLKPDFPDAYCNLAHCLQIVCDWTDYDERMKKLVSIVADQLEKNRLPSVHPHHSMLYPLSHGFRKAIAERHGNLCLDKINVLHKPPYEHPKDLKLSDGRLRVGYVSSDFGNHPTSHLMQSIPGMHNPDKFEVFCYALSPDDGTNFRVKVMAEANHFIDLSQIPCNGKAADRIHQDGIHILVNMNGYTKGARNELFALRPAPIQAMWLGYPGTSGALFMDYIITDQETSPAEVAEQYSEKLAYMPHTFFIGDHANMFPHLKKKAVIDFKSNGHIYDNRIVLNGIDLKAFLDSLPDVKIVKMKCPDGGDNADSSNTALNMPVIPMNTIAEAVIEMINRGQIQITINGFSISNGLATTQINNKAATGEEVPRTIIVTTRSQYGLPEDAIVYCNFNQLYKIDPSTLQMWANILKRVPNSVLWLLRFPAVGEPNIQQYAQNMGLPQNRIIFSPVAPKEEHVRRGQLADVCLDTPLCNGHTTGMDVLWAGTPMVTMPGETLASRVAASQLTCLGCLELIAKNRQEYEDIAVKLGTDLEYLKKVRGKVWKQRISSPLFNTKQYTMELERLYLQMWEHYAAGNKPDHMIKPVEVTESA

[2] = biological target: PCBP1 (endogenous) (human (endogenous in HGC-27 and AGS)) (UniProt Q15365); experiment: co-IP; endogenous proteins; lysates of HGC-27-shNC or shcircPRELID2 cells under normoxia or hypoxia, HGC-27 lysates untreated or with RNase R, and AGS cells with NC, circPRELID2-WT or circPRELID2-Mut; IP and immunoblot (Figures 7c, 7e, 7f, S7e)

binding [1]: binds
Molecule: V5‐PCBP1 (from UniProt Q15365 1-356)

binding [2]: binds
B1: OGT (endogenous) (enzyme, UniProt O15294 1-1046)
chain: T1 sequence
